The source of these data is publication PMC4944944.

The target of assay [1] is Flag-tagged full-length CHDP-1 (C. elegans) (UniProt P91027). Put plainly: co-IP; HEK293T cells co-transfected with Flag- and Myc-tagged constructs; lysates incubated with anti-FLAG M2 affinity gel beads at 4 °C overnight, washed three times, immunoblot.
Assay [2] addresses T1, CHDP-1 of the GST pull-down (C. elegans) (UniProt P91027).
T1 sequence: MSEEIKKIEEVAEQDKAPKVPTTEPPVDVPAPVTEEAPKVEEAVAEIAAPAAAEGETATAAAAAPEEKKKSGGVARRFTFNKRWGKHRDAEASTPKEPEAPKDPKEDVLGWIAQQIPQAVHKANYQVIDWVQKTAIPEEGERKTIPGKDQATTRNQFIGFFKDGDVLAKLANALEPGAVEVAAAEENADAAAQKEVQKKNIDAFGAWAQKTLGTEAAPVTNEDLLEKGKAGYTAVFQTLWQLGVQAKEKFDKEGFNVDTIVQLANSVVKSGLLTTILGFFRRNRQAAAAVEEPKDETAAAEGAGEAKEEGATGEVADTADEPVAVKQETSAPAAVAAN
Put plainly: pull-down; GST pull-down to verify hits of the mass spectrometry; not described further.

The target of assay [3] is T2, CHDP-1 CH domain fragment (AA 121-242) (C. elegans) (UniProt P91027).
T2 sequence: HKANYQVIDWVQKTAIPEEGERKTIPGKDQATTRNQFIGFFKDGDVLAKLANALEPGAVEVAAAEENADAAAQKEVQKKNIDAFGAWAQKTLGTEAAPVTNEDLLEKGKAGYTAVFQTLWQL
Put plainly: co-IP; HEK293T cells co-transfected with Flag- and Myc-tagged constructs; lysates incubated with anti-FLAG M2 affinity gel beads at 4 °C overnight, washed three times, immunoblot.

No constants are given. Whether binding was seen depends on the method and setting. In cells and extracts the contact can be indirect. Some results given as binding are weak or reduced against the parent protein; the word gives no strength. For part of these data: Where a sequence is shown, tags or fusion partners need not be part of it.

As to “Myc-tagged CED-10 (G12V) (from UniProt Q03206 1-191)”, the binding entry in assay [1] is given as “binds”.
As to “CED-10 of the GST pull-down (from UniProt Q03206 1-191)”, the binding entry in assay [2] was “binds”.
On to “Myc-tagged CED-10 (from UniProt Q03206 1-191)”, for which the binding result in assay [3] is recorded as “binds”.
